Experimental findings from patent publication US20180313836A1 are described below.

The target of assay [1] is T1, Recombinant rat Nrp1-Fc extracellular domain-Fc chimera (R&D systems) (rat) (UniProt Q9QWJ9).
T1 sequence (looked up): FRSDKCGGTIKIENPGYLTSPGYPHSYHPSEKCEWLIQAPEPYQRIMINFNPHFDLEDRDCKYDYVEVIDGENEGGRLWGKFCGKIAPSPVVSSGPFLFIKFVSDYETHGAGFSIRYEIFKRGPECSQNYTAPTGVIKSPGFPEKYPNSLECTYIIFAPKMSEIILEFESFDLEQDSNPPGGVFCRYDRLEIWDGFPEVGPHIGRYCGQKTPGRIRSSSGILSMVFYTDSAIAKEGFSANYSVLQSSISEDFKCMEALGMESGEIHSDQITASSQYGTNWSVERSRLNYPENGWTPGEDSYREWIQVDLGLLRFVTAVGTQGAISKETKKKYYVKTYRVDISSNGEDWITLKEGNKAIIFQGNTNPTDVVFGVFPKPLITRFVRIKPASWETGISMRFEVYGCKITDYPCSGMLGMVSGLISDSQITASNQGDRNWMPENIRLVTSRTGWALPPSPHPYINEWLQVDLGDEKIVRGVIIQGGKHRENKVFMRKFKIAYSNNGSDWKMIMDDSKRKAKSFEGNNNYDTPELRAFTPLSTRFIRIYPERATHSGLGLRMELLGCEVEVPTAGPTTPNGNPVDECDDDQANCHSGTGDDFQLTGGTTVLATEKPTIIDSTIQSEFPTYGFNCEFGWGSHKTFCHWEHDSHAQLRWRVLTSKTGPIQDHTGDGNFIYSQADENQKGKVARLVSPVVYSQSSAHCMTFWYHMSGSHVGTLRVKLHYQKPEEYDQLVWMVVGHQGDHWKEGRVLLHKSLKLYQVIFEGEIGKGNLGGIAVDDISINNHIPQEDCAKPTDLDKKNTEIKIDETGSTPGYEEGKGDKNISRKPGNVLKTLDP
Briefly: in vitro pull-down, Nrp1-Fc on Protein G beads (FIG. 3A).

Assay [2] deals with T1, Recombinant rat Nrp1-Fc extracellular domain-Fc chimera (R&D systems) (rat). Briefly: in vitro pull-down, Nrp1-Fc on Protein G beads, anti-GlyRS blot.
Assay [3] addresses T2, GST-Nrp1 b1b2 domain (res. Phe273-Glu586) (Homo sapiens (Human)) (UniProt O14786).
T2 sequence: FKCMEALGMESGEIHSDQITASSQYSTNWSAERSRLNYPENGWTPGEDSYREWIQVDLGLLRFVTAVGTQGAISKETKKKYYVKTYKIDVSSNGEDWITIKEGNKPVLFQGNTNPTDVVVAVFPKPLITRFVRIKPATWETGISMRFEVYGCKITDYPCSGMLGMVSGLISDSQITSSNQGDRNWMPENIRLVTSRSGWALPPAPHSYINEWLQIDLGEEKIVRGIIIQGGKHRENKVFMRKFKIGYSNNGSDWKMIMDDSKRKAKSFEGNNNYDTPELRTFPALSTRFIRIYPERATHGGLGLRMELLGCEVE
Briefly: in vitro pull-down on the Nrp1 b domains: L129P GlyRS 0, 19.3, 64.5, 193, 645 nM against 25 nM VEGF-A165.

Assay [4] concerns the target T1, Recombinant rat Nrp1-Fc extracellular domain-Fc chimera (R&D systems) (rat). Briefly: in vitro pull-down with the ectodomain of Nrp1 (FIG. 4B).
Assay [5] deals with T2, GST-Nrp1 b1b2 domain (res. Phe273-Glu586) (Homo sapiens (Human)). Briefly: in vitro pull-down, competitor VEGF-A165 (FIGS. 4D-4E).
Assay [6] shares this target. As to the kind of experiment: GST pull-down: GST-Nrp1 domain fusions on GST resin, non-tagged GlyRS, blot GlyRS.
Assay [7] concerns the target T3, GST-Nrp1 b1 domain (res. Phe273-Asp428) (Homo sapiens (Human)) (UniProt O14786).
T3 sequence: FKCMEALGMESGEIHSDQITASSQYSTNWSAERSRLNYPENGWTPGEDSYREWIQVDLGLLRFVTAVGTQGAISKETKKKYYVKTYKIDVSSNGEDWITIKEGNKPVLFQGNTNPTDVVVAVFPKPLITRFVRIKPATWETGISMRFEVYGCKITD
The assay is described as above.

Results are given in words; binding and its absence hold for the method and conditions named. For part of these data: Binding can be weak; no strength is given. Where a sequence is shown, tags or fusion partners need not be part of it. For part of these data: Binding seen in cells or lysates may run through a third protein.

“human glycyl-tRNA synthetase L129P (L129P-GlyRS^CMT2D) (enzyme)”: the binding entry in assay [1], in assay [2], in assay [3], in assay [4] and in assay [5] was “binds” throughout.
With “human glycyl-tRNA synthetase, wild type (GlyRS^WT) (enzyme)”, the binding result in assay [2] is given as “binds”; in assay [6], “no binding”; in assay [7], “no binding”.
Consider “human glycyl-tRNA synthetase G240R (G240R GlyRS^CMT2D) (enzyme)”, for which the binding result in assay [2] and in assay [4] was “binds” each time.
In the case of “human glycyl-tRNA synthetase E71G (E71G GlyRS^CMT2D) (enzyme)”, the binding result in assay [2] and in assay [4] was “binds” throughout.
